Assay results from paper PMC10245119.
No constants are given. Whether binding was seen depends on the method and setting. Binding seen in cells or lysates may run through a third protein. Some binding calls cover weakened binding; strength is not graded here. Sequences can lack the tags named with a protein.

By UniProt entry, the sequences of proteins in these tests, tags left out.
UniProt Q924X7: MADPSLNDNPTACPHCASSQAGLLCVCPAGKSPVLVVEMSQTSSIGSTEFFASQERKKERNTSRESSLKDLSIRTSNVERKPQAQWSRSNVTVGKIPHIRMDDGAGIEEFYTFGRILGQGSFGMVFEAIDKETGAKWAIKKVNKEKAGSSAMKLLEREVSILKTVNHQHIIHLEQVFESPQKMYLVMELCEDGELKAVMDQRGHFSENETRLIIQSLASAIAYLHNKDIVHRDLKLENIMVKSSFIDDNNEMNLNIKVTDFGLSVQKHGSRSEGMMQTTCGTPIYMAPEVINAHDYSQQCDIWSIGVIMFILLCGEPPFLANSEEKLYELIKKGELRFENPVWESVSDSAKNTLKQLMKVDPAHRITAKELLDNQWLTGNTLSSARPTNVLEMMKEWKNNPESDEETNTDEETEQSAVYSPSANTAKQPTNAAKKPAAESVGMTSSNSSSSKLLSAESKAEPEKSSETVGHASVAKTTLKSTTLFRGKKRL

Target: T1, AKAP3-FLAG (A-kinase anchoring protein 3, FLAG-tagged) (UniProt O88987)
T1 sequence: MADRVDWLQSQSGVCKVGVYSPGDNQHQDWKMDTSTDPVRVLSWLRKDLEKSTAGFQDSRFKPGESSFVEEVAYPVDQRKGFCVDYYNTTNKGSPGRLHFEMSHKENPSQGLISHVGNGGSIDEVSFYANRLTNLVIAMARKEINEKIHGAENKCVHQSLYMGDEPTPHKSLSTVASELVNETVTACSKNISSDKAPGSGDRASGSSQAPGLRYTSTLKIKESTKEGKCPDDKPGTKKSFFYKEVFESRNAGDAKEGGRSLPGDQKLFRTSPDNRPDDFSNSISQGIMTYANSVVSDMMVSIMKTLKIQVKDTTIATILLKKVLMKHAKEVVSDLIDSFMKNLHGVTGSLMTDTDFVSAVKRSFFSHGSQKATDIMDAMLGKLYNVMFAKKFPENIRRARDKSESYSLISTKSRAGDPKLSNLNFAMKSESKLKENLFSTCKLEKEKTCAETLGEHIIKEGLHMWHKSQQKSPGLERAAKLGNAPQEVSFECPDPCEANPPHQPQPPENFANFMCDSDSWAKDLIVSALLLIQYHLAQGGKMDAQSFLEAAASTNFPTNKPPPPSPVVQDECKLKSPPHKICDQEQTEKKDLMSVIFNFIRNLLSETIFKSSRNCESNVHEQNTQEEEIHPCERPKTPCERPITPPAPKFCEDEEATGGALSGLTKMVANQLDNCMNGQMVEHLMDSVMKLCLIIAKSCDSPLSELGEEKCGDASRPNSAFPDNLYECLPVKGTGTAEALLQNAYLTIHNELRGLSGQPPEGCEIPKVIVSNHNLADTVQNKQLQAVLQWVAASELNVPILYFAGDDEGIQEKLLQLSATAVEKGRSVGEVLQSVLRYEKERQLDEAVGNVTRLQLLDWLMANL
Test: co-IP; AKAP3-FLAG or FLAG-AKAP4-FLAG co-expressed with STK33-HA or STK33 KI-HA in HEK293T cells; lysis in Pierce IP lysis buffer; primary antibody overnight at 4 °C; protein A/G magnetic beads or G1 affinity resin; washes in PBST (0.5% Triton X-100); Western blot; reciprocal for STK33-HA

## STK33-HA (serine/threonine kinase 33, HA-tagged) (from UniProt Q924X7 1-491) (enzyme)
  binding: binds
